The results in this text go back to PMC12175430.

The assay deals with T1, Epithelial splicing regulatory protein 1 (UniProt Q6NXG1).
T1 sequence: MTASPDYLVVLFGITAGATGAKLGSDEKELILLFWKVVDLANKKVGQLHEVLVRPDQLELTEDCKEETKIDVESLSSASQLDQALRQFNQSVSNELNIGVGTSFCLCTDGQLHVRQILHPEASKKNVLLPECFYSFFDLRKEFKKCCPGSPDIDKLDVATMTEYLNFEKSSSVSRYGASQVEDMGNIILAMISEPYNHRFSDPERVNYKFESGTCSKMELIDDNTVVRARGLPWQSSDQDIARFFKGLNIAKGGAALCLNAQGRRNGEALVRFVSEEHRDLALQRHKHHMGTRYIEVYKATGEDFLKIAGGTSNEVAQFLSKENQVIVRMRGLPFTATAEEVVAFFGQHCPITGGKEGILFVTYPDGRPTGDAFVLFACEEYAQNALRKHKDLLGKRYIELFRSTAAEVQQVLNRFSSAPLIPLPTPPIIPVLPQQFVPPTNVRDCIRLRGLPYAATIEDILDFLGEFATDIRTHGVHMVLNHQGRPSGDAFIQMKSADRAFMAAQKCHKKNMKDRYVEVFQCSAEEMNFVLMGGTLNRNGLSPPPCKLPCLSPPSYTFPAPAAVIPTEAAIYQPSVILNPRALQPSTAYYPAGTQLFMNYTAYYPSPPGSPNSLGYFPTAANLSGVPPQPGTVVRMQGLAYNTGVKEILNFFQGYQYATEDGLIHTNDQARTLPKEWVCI
The assay is described as follows: co-IP; cells lysed in IP buffer with protease inhibitor; lysates incubated with antibodies overnight at 4 °C, then with protein A/G magnetic beads overnight at 4 °C; washed with PBST; Western blotting; cells and precipitating antibody not stated.

No constants are given. Whether binding was seen depends on the method and setting. In cells and extracts the contact can be indirect. Some binding calls cover weakened binding; strength is not graded here.

B1: 7-dehydrocholesterol reductase (protein, UniProt Q9UBM7 1-475)
chain: MAAKSQPNIPKAKSLDGVTNDRTASQGQWGRAWEVDWFSLASVIFLLLFAPFIVYYFIMACDQYSCALTGPVVDIVTGHARLSDIWAKTPPITRKAAQLYTLWVTFQVLLYTSLPDFCHKFLPGYVGGIQEGAVTPAGVVNKYQINGLQAWLLTHLLWFANAHLLSWFSPTIIFDNWIPLLWCANILGYAVSTFAMVKGYFFPTSARDCKFTGNFFYNYMMGIEFNPRIGKWFDFKLFFNGRPGIVAWTLINLSFAAKQRELHSHVTNAMVLVNVLQAIYVIDFFWNETWYLKTIDICHDHFGWYLGWGDCVWLPYLYTLQGLYLVYHPVQLSTPHAVGVLLLGLVGYYIFRVANHQKDLFRRTDGRCLIWGRKPKVIECSYTSADGQRHHSKLLVSGFWGVARHFNYVGDLMGSLAYCLACGGGHLLPYFYIIYMAILLTHRCLRDEHRCASKYGRDWERYTAAVPYRLLPGIF
As for B1, the binding entry is given as “binds”.
